Measured values reported in patent US20230059124A1, “Novel TAS2R38 Bitter Taste Receptor Agonist” (priority 2021, published 2023).

Assays:
TAS2R38 gene [1] = assay: qPCR TAS2R38 gene expression in hTBEC 1 culture; type: cell-based, human; conditions: 1 μM; for Tas2R38tb (Ct): 3prime primer pair; for Tas2R38-5 (Ct): 5prime primer pair; for Tas2R38C (Ct): Tas2R38C DS primer pair; for Delta Tas2R38 3prime / Delta Tas2R38 5prime / Delta Tas2R38C DS: vs Bactin
Description: (§1) Currently, very little is known about compounds that directly agonize and regulate TAS2R38 expression. Because of this, research related to the prenylflavonoid xanthohumol's effects on gene expression was compared with other TAS2R38 targeting compounds, namely sinigrin, a glucosinolate connected to the family of glucosides found in the Brassicaceae vegetable family and found in foods such as brussels sprouts and broccoli. […] selectively triggers the taster variant of the TAS2R38 receptor (Meyerhof, W. et al. The Molecular Receptive Ranges of Human TAS2R Bitter Taste Receptors. Chem Sense (2010) 35: 157-70.) […] was used as a comparator at a concentration of 1 the same concentration as xanthohumol (1 μM). Two hTBEC cultures were selected for this initial study. hTBEC 1 is derived from one of the most bitter-responsive cultures, which has a moderate/moderately low basal gene expression level of TAS2R38. hTBEC 2 is derived from a culture that responds to bitter stimuli, but has a high response in particular to TAS2R38 expression compared with other hTBEC repositories. RNA was harvested from cultures treated cultures and control cultures at 1 μM lead compound at 24 and 48 hours post treatment. Following is a table that explains the experimental paradigm in full: [table] In an effort to establishing a comprehensive understanding of xanthohumol's effects on gene expression, 3 unique primer pairs to accurately capture the TAS2R38 gene were developed as cultures. […] The published NCBI genetic sequence for the region of chromosome 7q that encodes TAS2R38 and overlay map the SNP variant markers to ensure the primers cover strategic regions of the TAS2R38 gene. For probing TAS2R38, 3 individual primer pairs were used for a comprehensive view of how the compound may be “hitting” the gene.

TAS2R38 gene [2] = assay: qPCR TAS2R38 gene expression in hTBEC 2 culture; type: cell-based, human; conditions: 1 μM; for Tas2R38tb (Ct): 3prime primer pair; for Tas2R38-5 (Ct): 5prime primer pair; for Tas2R38C (Ct): Tas2R38C DS primer pair; for Delta Tas2R38 3prime / Delta Tas2R38 5prime / Delta Tas2R38C DS: vs Bactin
Description: as §1

| Structure (SMILES) | Tas2R38tb (Ct) (TAS2R38 gene [1]; hTBEC 1, 24 hour) | Tas2R38-5 (Ct) (TAS2R38 gene [1]; hTBEC 1, 24 hour) | Tas2R38C (Ct) (TAS2R38 gene [1]; hTBEC 1, 24 hour) | Delta Tas2R38 3prime (TAS2R38 gene [1]; hTBEC 1, 24 hour) | Delta Tas2R38 5prime (TAS2R38 gene [1]; hTBEC 1, 24 hour) | Delta Tas2R38C DS (TAS2R38 gene [1]; hTBEC 1, 24 hour) | Tas2R38tb (Ct) (TAS2R38 gene [1]; hTBEC 1, 48 hour) | Tas2R38-5 (Ct) (TAS2R38 gene [1]; hTBEC 1, 48 hour) | Tas2R38C (Ct) (TAS2R38 gene [1]; hTBEC 1, 48 hour) | Delta Tas2R38 3prime (TAS2R38 gene [1]; hTBEC 1, 48 hour) | Delta Tas2R38 5prime (TAS2R38 gene [1]; hTBEC 1, 48 hour) | Delta Tas2R38C DS (TAS2R38 gene [1]; hTBEC 1, 48 hour) | Tas2R38tb (Ct) (TAS2R38 gene [2]; hTBEC 2, 24 hour) | Tas2R38-5 (Ct) (TAS2R38 gene [2]; hTBEC 2, 24 hour) | Tas2R38C (Ct) (TAS2R38 gene [2]; hTBEC 2, 24 hour) | Delta Tas2R38 3prime (TAS2R38 gene [2]; hTBEC 2, 24 hour) | Delta Tas2R38 5prime (TAS2R38 gene [2]; hTBEC 2, 24 hour) | Delta Tas2R38C DS (TAS2R38 gene [2]; hTBEC 2, 24 hour) | Tas2R38tb (Ct) (TAS2R38 gene [2]; hTBEC 2, 48 hour) | Tas2R38-5 (Ct) (TAS2R38 gene [2]; hTBEC 2, 48 hour) | also measured |
| --- | --- | --- | --- | --- | --- | --- | --- | --- | --- | --- | --- | --- | --- | --- | --- | --- | --- | --- | --- | --- | --- |
| C=CCC(=NOS(=O)(=O)O)S[C@@H]1O[C@H](CO)[C@@H](O)[C@H](O)[C@H]1O (stereo in doubt) [sinigrin, reference compound] | 32.123 | 32.238 | 29.116 | 13.748 | 14.240 | 11.093 | 30.596 | 30.270 | 30.027 | 12.599 | 12.430 | 12.353 | 27.722 | 27.234 | 25.730 | 9.207 | 9.355 | 7.766 | 26.075 | 26.389 | Tas2R38C (Ct) (TAS2R38 gene [2]; hTBEC 2, 48 hour): 27.460; Delta Tas2R38 3prime (TAS2R38 gene [2]; hTBEC 2, 48 hour): 8.077; Delta Tas2R38 5prime (TAS2R38 gene [2]; hTBEC 2, 48 hour): 8.173; Delta Tas2R38C DS (TAS2R38 gene [2]; hTBEC 2, 48 hour): 9.949 |
| COc1cc(O)c(CC=C(C)C)c(O)c1C(=O)/C=C/c1ccc(O)cc1 [xanthohumol] | 30.671 | 30.770 | 27.314 | 12.714 | 12.438 | 9.648 | 31.539 | 29.788 | 28.949 | 13.165 | 12.016 | 11.093 | 26.977 | 27.214 | 25.495 | 7.461 | 7.356 | 6.329 | 26.985 | 27.026 | Tas2R38C (Ct) (TAS2R38 gene [2]; hTBEC 2, 48 hour): 25.038; Delta Tas2R38 3prime (TAS2R38 gene [2]; hTBEC 2, 48 hour): 8.607; Delta Tas2R38 5prime (TAS2R38 gene [2]; hTBEC 2, 48 hour): 9.250; Delta Tas2R38C DS (TAS2R38 gene [2]; hTBEC 2, 48 hour): 7.210 |
